Article PMC6245935, “Fructose-1,6-bisphosphate aldolase encoded by a core gene of Mycoplasma hyopneumoniae contributes to host cell adhesion” (Veterinary Research, 2018)

Molecular target: T1, recombinant fructose-1,6-bisphosphate aldolase (rFBA) of Mycoplasma hyopneumoniae strain 168 (Mycoplasma hyopneumoniae strain 168) (UniProt E4QS16)
T1 sequence: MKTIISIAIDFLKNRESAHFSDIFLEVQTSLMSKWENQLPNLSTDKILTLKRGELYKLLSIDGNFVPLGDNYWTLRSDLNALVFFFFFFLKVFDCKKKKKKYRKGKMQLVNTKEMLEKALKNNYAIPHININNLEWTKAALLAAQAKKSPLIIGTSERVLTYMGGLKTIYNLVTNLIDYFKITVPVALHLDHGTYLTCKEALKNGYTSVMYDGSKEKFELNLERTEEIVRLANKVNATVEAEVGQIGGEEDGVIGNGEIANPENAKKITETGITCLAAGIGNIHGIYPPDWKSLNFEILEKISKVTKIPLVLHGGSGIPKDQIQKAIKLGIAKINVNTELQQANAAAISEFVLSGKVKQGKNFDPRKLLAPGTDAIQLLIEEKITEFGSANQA
Experiment: far-Western, overlay or dot blot; 20 ug rFBA (or BSA as negative control) separated by SDS-PAGE and transferred to PVDF; blocked with 5% skimmed milk; incubated with 5 ug/mL fibronectin; detected with rabbit anti-fibronectin antibody and HRP anti-rabbit IgG, ECL; both purified

For fibronectin, the binding was “binds”.

These are yes or no findings as the source states them, for the method shown. A result given as binding can be weak or reduced; the word gives no strength. Sequences can lack the tags named with a protein.
